Measurements reported in PubChem BioAssay AID1259425 (University of Nebraska Medical Center, 2018)
Here is a random part of about 14,000 deposited reagents. Reagents against one gene are numbered here. Further read-outs or replicates are left out here. Not given: the time to read-out.

- Assay: 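Compare each knockdown with KSR1 silencing using changes in marker transcripts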 (primary screen)
- System: HCT116 human colon cancer cells
- Knock-down reagent: siRNA pool against human genes, 50 nM siRNA
- Detection: 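After 50 nM siRNA pool, branched-DNA assay measures six marker transcripts per well, minus blank, normalised to the geometric mean of two housekeeping transcripts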
- Scale: BNIP3L mRNA: higher = more BNIP3L transcript after knockdown

| Target gene | reagent no. | BNIP3L mRNA, set 1 |
| --- | --- | --- |
| CHRNB4 (cholinergic receptor nicotinic beta 4 subunit) | 1 | 0.0929 |
| TEAD1 (TEA domain transcription factor 1) | 1 | 0.0768 |
| IRX4 (iroquois homeobox 4) | 1 | 0.256 |
| H4C11 (H4 clustered histone 11) | 1 | 0.101 |
| CFHR5 (complement factor H related 5) | 1 | 0.117 |
| ARHGEF11 (Rho guanine nucleotide exchange factor 11) | 1 | 0.114 |
| S100A6 (S100 calcium binding protein A6) | 1 | 0.117 |
| EIF4E (eukaryotic translation initiation factor 4E) | 1 | 0.159 |
| PDCD6 (programmed cell death 6) | 1 | 0.0952 |
| DAP (death associated protein) | 1 | 0.0975 |
| PRR13 (proline rich 13) | 1 | 0.185 |
| SLC6A2 | 1 | 0.243 |
| AP3D1 (adaptor related protein complex 3 subunit delta 1) | 1 | 0.115 |
| ZNF74 (zinc finger protein 74) | 1 | 0.0902 |
| CYB5R4 (cytochrome b5 reductase 4) | 1 | 0.09 |
| GCFC2 (GC-rich sequence DNA-binding factor 2) | 1 | 0.107 |
| CSNK2A1 (casein kinase 2 alpha 1) | 1 | 0.0718 |
| PEX10 (peroxisomal biogenesis factor 10) | 1 | 0.1 |
| ITFG1 (integrin alpha FG-GAP repeat containing 1) | 1 | 0.101 |
| RHD (Rh blood group D antigen) | 1 | 0.104 |
| ZNF521 (zinc finger protein 521) | 1 | 0.264 |
| IQCC (IQ motif containing C) | 1 | 0.055 |
| GDAP2 (ganglioside induced differentiation associated protein 2) | 1 | 0.128 |
| TAT (tyrosine aminotransferase) | 1 | 0.112 |
| IL17RA (interleukin 17 receptor A) | 1 | 0.215 |
| HBEGF (heparin binding EGF like growth factor) | 1 | 0.0255 |
| MSX2 (msh homeobox 2) | 1 | 0.109 |
| VKORC1 (vitamin K epoxide reductase complex subunit 1) | 1 | 0.101 |
| PLEKHN1 (pleckstrin homology domain containing N1) | 1 | 0.255 |
| CER1 (cerberus 1, DAN family BMP antagonist) | 1 | 0.109 |
| ONECUT2 (one cut homeobox 2) | 1 | 0.127 |
| TMSB10 (thymosin beta 10) | 1 | 0.0675 |
| PMEPA1 (prostate transmembrane protein, androgen induced 1) | 1 | 0.221 |
| CCIN (calicin) | 1 | 0.122 |
| SDHD (succinate dehydrogenase complex subunit D) | 1 | 0.0805 |
| DECR2 (2,4-dienoyl-CoA reductase 2) | 1 | 0.178 |
| GFI1B (growth factor independent 1B transcriptional repressor) | 1 | 0.12 |
| NRSN2 (neurensin 2) | 1 | 0.155 |
| NDUFAF3 (NADH:ubiquinone oxidoreductase complex assembly factor 3) | 1 | 0.159 |
| CSNK2B (casein kinase 2 beta) | 1 | 0.0903 |
| RNF39 (ring finger protein 39) | 1 | 0.104 |

5 of these entries, reformatted.
Target gene,reagent no.,"BNIP3L mRNA, set 1"
VKORC1 (vitamin K epoxide reductase complex subunit 1),1,0.101
PLEKHN1 (pleckstrin homology domain containing N1),1,0.255
"CER1 (cerberus 1, DAN family BMP antagonist)",1,0.109
ONECUT2 (one cut homeobox 2),1,0.127
TMSB10 (thymosin beta 10),1,0.0675

The list goes on.
| Target gene | reagent no. | BNIP3L mRNA, set 1 |
| --- | --- | --- |
| INTS12 (integrator complex subunit 12) | 1 | 0.183 |
| TAOK3 (TAO kinase 3) | 1 | 0.0545 |
| MACROD1 (mono-ADP ribosylhydrolase 1) | 1 | 0.11 |
| NCK2 (NCK adaptor protein 2) | 1 | 0.0853 |
| VEGFB (vascular endothelial growth factor B) | 1 | 0.188 |
| HLA-F (major histocompatibility complex, class I, F) | 1 | 0.0891 |
| OR7E91P (olfactory receptor family 7 subfamily E member 91 pseudogene) | 1 | 0.232 |
| CREM (cAMP responsive element modulator) | 1 | 0.04 |
| PRPF6 (pre-mRNA processing factor 6) | 1 | 0.0535 |
| RNASEH2B (ribonuclease H2 subunit B) | 1 | 0.113 |
| COX5B (cytochrome c oxidase subunit 5B) | 1 | 0.0832 |
| DCPS (decapping enzyme, scavenger) | 1 | 0.0796 |
| DHX37 (DEAH-box helicase 37) | 1 | 0.0725 |
| ZMYM4 (zinc finger MYM-type containing 4) | 1 | 0.151 |
| SYF2 (SYF2 pre-mRNA splicing factor) | 1 | 0.151 |
| SPANXB1 (SPANX family member B1) | 1 | 0.181 |
| SPANXB1 (SPANX family member B1) | 2 | 0.162 |
| AGBL2 (AGBL carboxypeptidase 2) | 1 | 0.121 |
| DMWD (DM1 locus, WD repeat containing) | 1 | 0.239 |
| MMAA (metabolism of cobalamin associated A) | 1 | 0.136 |
| CT55 (cancer/testis antigen 55) | 1 | 0.0564 |
| MEIS3 (Meis homeobox 3) | 1 | 0.221 |
